The values below come from publication PMC5691892.

Assay [1] addresses Mouse ICN1^ΔANK6-2531 (mouse). Briefly: co-IP; ectopically expressed proteins in Jurkat cells (WT, CBLB knockdown clone sh1, or VAV1-/- cells expressing Vav1 proteins), 36 hr after electroporation; lysis in 10 mM Tris-HCl pH 8.0, 150 mM NaCl, 1% Triton X-100; 2 hr at 4°C with antibodies to Cbl-b or ICN1, Gammabind G-Sepharose; immunoblot. A general note: A western blot detects proteins with antibodies after separation by electrophoresis.

Assay [2] has as its target Mouse ICN1^ΔANK7-2531 (mouse). Described as above.

Results are given in words; binding and its absence hold for the method and conditions named. In cells and extracts the contact can be indirect. For some assays here: Binding calls can cover weak binding; strength is not graded here.

B1: Mouse Vav1^WT (ectopically expressed) (protein, UniProt P27870 1-845)
chain: MELWRQCTHWLIQCRVLPPSHRVTWEGAQVCELAQALRDGVLLCQLLNNLLPQAINLREVNLRPQMSQFLCLKNIRTFLSTCCEKFGLKRSELFEAFDLFDVQDFGKVIYTLSALSWTPIAQNKGIMPFPTEDSALNDEDIYSGLSDQIDDTAEEDEDLYDCVENEEAEGDEIYEDLMRLESVPTPPKMTEYDKRCCCLREIQQTEEKYTDTLGSIQQHFMKPLQRFLKPQDMETIFVNIEELFSVHTHFLKELKDALAGPGATTLYQVFIKYKERFLVYGRYCSQVESASKHLDQVATAREDVQMKLEECSQRANNGRFTLRDLLMVPMQRVLKYHLLLQELVKHTQDATEKENLRLALDAMRDLAQCVNEVKRDNETLRQITNFQLSIENLDQSLANYGRPKIDGELKITSVERRSKTDRYAFLLDKALLICKRRGDSYDLKASVNLHSFQVRDDSSGERDNKKWSHMFLLIEDQGAQGYELFFKTRELKKKWMEQFEMAISNIYPENATANGHDFQMFSFEETTSCKACQMLLRGTFYQGYRCYRCRAPAHKECLGRVPPCGRHGQDFAGTMKKDKLHRRAQDKKRNELGLPKMEVFQEYYGIPPPPGAFGPFLRLNPGDIVELTKAEAEHNWWEGRNTATNEVGWFPCNRVHPYVHGPPQDLSVHLWYAGPMERAGAEGILTNRSDGTYLVRQRVKDTAEFAISIKYNVEVKHIKIMTSEGLYRITEKKAFRGLLELVEFYQQNSLKDCFKSLDTTLQFPYKEPERRAISKPPAGSTKYFGTAKARYDFCARDRSELSLKEGDIIKILNKKGQQGWWRGEIYGRIGWFPSNYVEEDYSEYC
Consider B1, for which the values for the binding entry in assay [1] and in assay [2] were “no binding” and “binds”, respectively.
